Reference: US8071763B2, “Methods for treatment of nocturia” (Daiichi Sankyo Company, Limited, priority 2002, dated 2011)

Tested on: patients with nocturia
Experiment: Continuation and termination of loxoprofen administration after the trial treatment
Format: in vivo, human
Experimental: After the initial study, loxoprofen was administered at the patients' discretion; 101 continued loxoprofen therapy for =320 (mean 61) days. After the evaluation, loxoprofen therapy was continued or not according to the patients' wishes (Table 5). Of 101 excellent and improved patients, 11 continued to take loxoprofen every night and 43 when necessary. The improvement of nocturia lasted for several months even after discontinuation of therapy in 11 (10%) who discontinued loxoprofen after 5 to 310 days' administration. In addition, in five patients in whom loxoprofen's effectiveness reduced after continuous administration, the effectiveness recovered with occasional administration following withdrawal for several weeks.

With `CC(C(=O)O)c1ccc(CC2CCCC2=O)cc1` (stereo not drawn) [loxoprofen, loxoprofen sodium] the “Continued administration, average days” value (Excellent outcome) was “(129) days”, the “Continued occasional administration, average days” value (Excellent outcome) was “(95) days” and the “Terminated, average days” value (Excellent outcome) was “(56) days”. The “Continued administration, average days” value (Improved outcome) was “(60) days”, the “Continued occasional administration, average days” value (Improved outcome) was “(54) days” and the “Terminated, average days” value (Improved outcome) was “(20) days”.
